Laboratory results as given in PMC3139607.
No constants are given. Whether binding was seen depends on the method and setting. Some entries that bind do so weakly or less than the wild type.

What was measured:
[1] = target: membrane CD4 on PM-1 cells pre-treated with recombinant gp120 IIIB (human (endogenous in PM-1) | HIV-1 isolate IIIB) (UniProt P01730); assay: flow cytometry on cells; 500,000 cells per sample, 20 min on ice with 1 µg MAb; fluorescein-conjugated anti-mouse IgG; PM-1 cells treated or not with recombinant gp120; RK13 cells expressing Ba-L Env treated or not with 2D-CD4 or CD4-M3; only the binder purified
[2] = target: membrane-expressed human CD4 (human (endogenous in PM-1)) (UniProt P01730); assay: as above

B1: MAb DB81 (antibody, V domains shown)
VH: EVQLQQSGPELVKPGASVKISCKASGYSFTDYTMLWVKQSHGKSLEWIGNINPYYDTTTYNLNFKGKATMTVDKSSSTAYMQLNSLTSEDSAVYYCAREGDYGHPFAYWGQGTLVTVSS
VL: DIVMTQSHKFMSTSVGDRVSITCKASQDVSTTVAWYQQKPGQSPKLLIYSASYRYTGVPDRFTGSGSGTDFTFTISSVQAEDLAVYYCQQHYSTPPTFGGGTKLEIR
Q: B1 was tested. Which binding [1] did it give?
A: binds

Q: What about the binding [2] of the same binder?
A: binds
